Results are given in words; binding and its absence hold for the method and conditions named. In cells and extracts the contact can be indirect. Some entries that bind do so weakly or less than the wild type. Where a sequence is shown, tags or fusion partners need not be part of it.
Molecular target: T1, Human recombinant GST-Arc (bait of the pull-down, on glutathione-Sepharose) (human) (UniProt Q7LC44)
T1 sequence: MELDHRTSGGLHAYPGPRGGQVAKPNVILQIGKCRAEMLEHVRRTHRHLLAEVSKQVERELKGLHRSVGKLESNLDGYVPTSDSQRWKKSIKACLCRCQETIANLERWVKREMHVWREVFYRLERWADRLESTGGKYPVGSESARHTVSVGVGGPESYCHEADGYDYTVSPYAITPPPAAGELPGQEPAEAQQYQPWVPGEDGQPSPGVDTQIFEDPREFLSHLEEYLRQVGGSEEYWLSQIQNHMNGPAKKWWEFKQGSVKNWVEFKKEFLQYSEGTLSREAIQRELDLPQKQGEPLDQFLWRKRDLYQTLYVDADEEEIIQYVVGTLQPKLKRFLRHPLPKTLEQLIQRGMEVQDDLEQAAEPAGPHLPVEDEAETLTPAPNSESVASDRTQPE
Test: pull-down

Amino acid sequences for entries named in this document (tags omitted).
UniProt Q99MK2: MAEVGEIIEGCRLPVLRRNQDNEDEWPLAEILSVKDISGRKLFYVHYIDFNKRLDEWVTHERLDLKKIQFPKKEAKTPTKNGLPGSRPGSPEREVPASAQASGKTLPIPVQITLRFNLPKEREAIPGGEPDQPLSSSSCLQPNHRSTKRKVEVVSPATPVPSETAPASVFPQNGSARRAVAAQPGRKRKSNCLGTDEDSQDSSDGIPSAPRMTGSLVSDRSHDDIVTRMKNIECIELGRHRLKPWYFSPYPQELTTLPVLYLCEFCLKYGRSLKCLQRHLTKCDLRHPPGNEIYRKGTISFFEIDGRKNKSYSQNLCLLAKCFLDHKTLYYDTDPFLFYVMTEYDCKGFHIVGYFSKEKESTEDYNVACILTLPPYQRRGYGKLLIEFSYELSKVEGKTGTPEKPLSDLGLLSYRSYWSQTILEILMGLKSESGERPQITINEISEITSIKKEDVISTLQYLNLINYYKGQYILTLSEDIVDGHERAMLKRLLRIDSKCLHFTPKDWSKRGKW

For “Histone acetyl transferase TIP60, endogenous, rat dentate gyrus nucleosol (from UniProt Q99MK2 1-513)”, the binding was “binds”.

— paper doi:10.1101/2024.09.04.610023 (bioRxiv, 2024)
